Results reported in paper PMC7019344.
Results are given in words; binding and its absence hold for the method and conditions named. In cells and extracts the contact can be indirect. Some entries that bind do so weakly or less than the wild type.

By UniProt entry, the sequences of proteins in these tests, tags left out.
UniProt P22626: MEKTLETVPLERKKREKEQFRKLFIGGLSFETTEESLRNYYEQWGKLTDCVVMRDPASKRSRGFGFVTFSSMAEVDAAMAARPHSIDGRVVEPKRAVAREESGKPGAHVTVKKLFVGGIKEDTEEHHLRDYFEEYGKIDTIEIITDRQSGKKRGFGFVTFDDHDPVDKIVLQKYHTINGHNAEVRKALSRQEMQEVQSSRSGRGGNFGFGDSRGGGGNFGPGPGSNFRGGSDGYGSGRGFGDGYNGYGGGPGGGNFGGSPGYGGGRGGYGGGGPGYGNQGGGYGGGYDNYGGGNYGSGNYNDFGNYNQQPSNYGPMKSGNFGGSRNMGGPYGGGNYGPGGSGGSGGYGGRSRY
UniProt Q04206: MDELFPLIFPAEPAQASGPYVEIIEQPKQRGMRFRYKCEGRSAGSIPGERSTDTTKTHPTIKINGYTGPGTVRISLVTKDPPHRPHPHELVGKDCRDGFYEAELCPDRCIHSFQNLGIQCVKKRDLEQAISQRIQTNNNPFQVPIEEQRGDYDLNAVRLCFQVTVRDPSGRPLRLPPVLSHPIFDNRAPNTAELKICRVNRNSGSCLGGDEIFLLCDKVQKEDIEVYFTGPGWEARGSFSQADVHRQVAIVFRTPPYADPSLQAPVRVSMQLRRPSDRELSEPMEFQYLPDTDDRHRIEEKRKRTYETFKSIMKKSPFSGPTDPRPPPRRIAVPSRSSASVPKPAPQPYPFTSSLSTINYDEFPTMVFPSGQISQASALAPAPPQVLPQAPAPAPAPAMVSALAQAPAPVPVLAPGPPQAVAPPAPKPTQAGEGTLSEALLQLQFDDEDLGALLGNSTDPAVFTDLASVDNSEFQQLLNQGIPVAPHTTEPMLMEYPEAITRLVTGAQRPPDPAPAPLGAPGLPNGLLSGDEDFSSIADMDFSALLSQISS

Molecular target: heterogeneous nuclear ribonucleoprotein A2/B1 (human (endogenous in Jurkat)) (UniProt P22626)
Assay: co-IP; Jurkat cells lysed in RIPA buffer with protease inhibitors; immunoprecipitated with 2 ug hnRNPA2/B1 antibody (Abcam ab6102) or control rabbit IgG overnight at 4 degrees; protein G beads, washed 4 times with lysis buffer; blotted for p65 and hnRNPA2/B1

NF-kB p65/RelA (from UniProt Q04206 1-551)
binding: binds
